Reference: the supplement of paper PMC12067093, “Discovery and optimisation of a covalent ligand for TRIM25 and its application to targeted protein ubiquitination” (Chemical Science, 2025)
The list shows a part of the results.

Compound: Cc1cc(ccc1-c1ccccc1)C(=O)N1CCCN(CC1)C(=O)CCl [compound 10]
Assay: probe-labelled cysteine peptide fold change vs DMSO (competition) (log2 fold change); higher = less target engagement (more negative = stronger competition)
Conditions: THP-1, incubation time: 4 h
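Note: competitive profiling in live THP-1 cells: cysteine peptides tagged with an iodoacetamide desthiobiotin (IA-DTB) probe, intensity after compound treatment relative to DMSO-treated cells.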

Target | probe-labelled cysteine peptide fold change (10 µM) | probe-labelled cysteine peptide fold change (50 µM)
NAE1_Q13564_483_DDYVHEFCR (UniProt Q13564) | 0.0669 | 0.223
NADSYN1_Q6IA69_416_ILTTCYMASK (UniProt Q6IA69) | -0.139 | -0.22
NAPG_Q99747_193_EIENYPTCYK (UniProt Q99747) | 0.06 | 0.0425
NAE1_Q13564_153_LADVLWNSQIPLLICR (UniProt Q13564) | 0.0606 | 0.139
NACC1_Q96RE7_178_VKTEQQESDSVQCMPVAK (UniProt Q96RE7) | -0.278 | -0.63
NCAPH_Q15003_255_TAASFDECSTAGVFLSTLHCQDYR (UniProt Q15003) | -0.0675 | -0.288
NAT1_P18440_233_SFCSLQTPDGVHCLVGFTLTHR (UniProt P18440) | -0.16 | -0.0253
NAPA_P54920_84_HDAATCFVDAGNAFKK (UniProt P54920) | 0.00454 | -0.097
NAXE_Q8NCW5_283_KYQLNLPPYPDTECVYR (UniProt Q8NCW5) | -0.141 | -0.122
NCBP1_Q09161_477+483_ILDIVPPTFSALCPANPTCIYK (UniProt Q09161) | -0.0108 | 0.12
NCAPG2_Q86XI2_826_AFGLHCR (UniProt Q86XI2) | -0.0366 | 0.0971
NAGA_P17050_80_DMGYTYLNIDDCWIGGR (UniProt P17050) | -0.126 | 0.051
MYO1G_B0I1T2_831_QDWGCR (UniProt B0I1T2) | -0.053 | –
MYO1F_O00160_807_GQVCEVLK (UniProt O00160) | -0.113 | 0.0323
MYO18A_Q92614_404_ANAPSCDRLEDLASLVYLNESSVLHTLR (UniProt Q92614) | -0.129 | -0.0504
NCAPD2_Q15021_1229_DLAYCVSQLPLTER (UniProt Q15021) | -0.143 | -0.177
NCF2_P19878_40+45_ICFNIGCMYTILK (UniProt P19878) | -0.00566 | -0.4
MYO18A_Q92614_1155_AVEELLECLDLEK (UniProt Q92614) | – | 0.0501
MYO1C_O00159_585_NPIMSQCFDR (UniProt O00159) | -0.00267 | 0.105
NBEAL2_Q6ZNJ1_822_TLCTLGPNETAPFKPEGELHELSTR (UniProt Q6ZNJ1) | -0.232 | -0.31

Some of the entries so far, with tabs.
Target	probe-labelled cysteine peptide fold change (10 µM)	probe-labelled cysteine peptide fold change (50 µM)
NAXE_Q8NCW5_283_KYQLNLPPYPDTECVYR (UniProt Q8NCW5)	-0.141	-0.122
NCBP1_Q09161_477+483_ILDIVPPTFSALCPANPTCIYK (UniProt Q09161)	-0.0108	0.12
NCAPG2_Q86XI2_826_AFGLHCR (UniProt Q86XI2)	-0.0366	0.0971
NAGA_P17050_80_DMGYTYLNIDDCWIGGR (UniProt P17050)	-0.126	0.051
MYO1G_B0I1T2_831_QDWGCR (UniProt B0I1T2)	-0.053	–
MYO1F_O00160_807_GQVCEVLK (UniProt O00160)	-0.113	0.0323
MYO18A_Q92614_404_ANAPSCDRLEDLASLVYLNESSVLHTLR (UniProt Q92614)	-0.129	-0.0504
NCAPD2_Q15021_1229_DLAYCVSQLPLTER (UniProt Q15021)	-0.143	-0.177
NCF2_P19878_40+45_ICFNIGCMYTILK (UniProt P19878)	-0.00566	-0.4
MYO18A_Q92614_1155_AVEELLECLDLEK (UniProt Q92614)	–	0.0501
MYO1C_O00159_585_NPIMSQCFDR (UniProt O00159)	-0.00267	0.105

(continued)

Target | probe-labelled cysteine peptide fold change (10 µM) | probe-labelled cysteine peptide fold change (50 µM)
MYO1E_Q12965_107_ENQCVIISGESGAGK (UniProt Q12965) | -0.0797 | -0.799
NADK2_Q4G0N4_193_SEGHLCLPVR (UniProt Q4G0N4) | -0.0947 | 0.146
NAP1L1_P55209_388_DQNPAECK (UniProt P55209) | 0.124 | 0.514
NCKAP1L_P55160_338_EHVIANSGQFHCQR (UniProt P55160) | -0.0156 | -0.232
MYOF_Q9NZM1_1167_DSFSDPYAHICFLHR (UniProt Q9NZM1) | 0.0801 | 0.0689
NBEAL2_Q6ZNJ1_2335_ALEGIISNFGQTPCQLLK (UniProt Q6ZNJ1) | -0.107 | 0.0182
NADSYN1_Q6IA69_686_CIENQVLQLER (UniProt Q6IA69) | -0.0444 | -0.0355
MYO18A_Q92614_404_ANAPSCDR (UniProt Q92614) | -0.127 | 0.317
NCBP1_Q09161_231_THVPMLQVWTADKPHPQEEYLDCLWAQIQK (UniProt Q09161) | 0.00459 | 0.0362
MYOF_Q9NZM1_1660_FGSHCGIPEEYCVSGVNTWR (UniProt Q9NZM1) | -0.193 | 0.0243
NCAPD3_P42695_588_HCDVSGMKEDLWILQDQCRDPAVSVR (UniProt P42695) | -0.104 | -0.377
NANS_Q9NR45_19_WVGGQHPCFIIAEIGQNHQGDLDVAK (UniProt Q9NR45) | 0.0873 | -0.181
MYO9B_Q13459_1169_HIQSCK (UniProt Q13459) | -0.0592 | -0.369
MYO18A_Q92614_783_SSQHSLCSMMIVDTPGFQNPEQGGSAR (UniProt Q92614) | 0.03 | 0.0532
NAPRT_Q6XQN6_48_RCPFGGAFALAAGLR (UniProt Q6XQN6) | -0.818 | 0.199
NBAS_A2RRP1_1634_QLHCYNER (UniProt A2RRP1) | 0.0234 | -0.116
NCBP1_Q09161_409_LDTMNTTCVDR (UniProt Q09161) | -0.127 | 0.385
NBAS_A2RRP1_1777_LQYYFTLLENCGCADLGNCAIKPETHIR (UniProt A2RRP1) | -0.104 | 0.102
NCAPD2_Q15021_1249_MLDNFDCFGDK (UniProt Q15021) | -0.0542 | 0.0509
